Laboratory results: US20200206344A1, “METHODS FOR MODULATING THE INTERACTION BETWEEN EWS-FLI1 AND BAF COMPLEXES” (Dana-Farber Cancer Institute, Inc., priority 2017, published 2020)
No constants are given. Whether binding was seen depends on the method and setting. In cells and extracts the contact can be indirect. Some binding calls cover weakened binding; strength is not graded here. Tags and fused reporters may be left off the sequences shown.

Target: T1, V5-EWS-FLI1 (human)
T1 sequence: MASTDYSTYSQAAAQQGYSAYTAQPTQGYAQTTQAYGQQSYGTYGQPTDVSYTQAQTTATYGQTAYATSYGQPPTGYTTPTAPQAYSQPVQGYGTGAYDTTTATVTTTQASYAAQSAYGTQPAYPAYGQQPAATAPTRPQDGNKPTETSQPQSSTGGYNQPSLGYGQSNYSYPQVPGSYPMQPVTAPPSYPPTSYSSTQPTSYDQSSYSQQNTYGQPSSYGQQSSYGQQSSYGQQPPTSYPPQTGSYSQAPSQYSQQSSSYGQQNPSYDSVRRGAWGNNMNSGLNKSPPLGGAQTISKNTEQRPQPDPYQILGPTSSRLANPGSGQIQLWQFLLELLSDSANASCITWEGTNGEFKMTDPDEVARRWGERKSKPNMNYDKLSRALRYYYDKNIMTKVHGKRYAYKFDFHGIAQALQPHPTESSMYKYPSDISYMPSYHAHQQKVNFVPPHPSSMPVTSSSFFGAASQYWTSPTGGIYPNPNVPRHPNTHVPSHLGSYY
Test: co-immunoprecipitation with anti-V5 antibodies, HEK-293-T cells co-expressing HA- and V5-tagged proteins

binding: binds
B1: HA-EWS-FLI1 (protein, not shown: small tags and cut ends)
chain: T1 sequence
